± gives the standard deviation of the averaged measurements. The list shows a part of the results.
Compound: Nc1nc2c(ncn2[C@@H]2O[C@H](COP(=O)(O)OP(=O)(O)OP(=O)(O)O)[C@@H](O)[C@H]2O)c(=O)[nH]1 [guanosine triphosphate]
Assay: NP40-soluble protein abundance relative to vehicle (solubility fold change) (ratio); higher = more soluble protein in presence of GTP
In short: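 Jurkat crude lysate (Dounce-homogenised) was treated with eight concentrations from 0.1 to 10 mM for 10 min at room temperature, then 3 min at 37 °C. It was solubilised with 0.8% NP40 and benzonase (60 min, 4 °C) and ultracentrifuged, and the supernatant was TMT-labelled for LC-MS/MS. Intensities were vsn-normalised, and the value is the fold change against the NP40-processed vehicle per replicate, from three independent experiments.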

Protein sequences, listed by entry. Tags and fused reporters are not part of them. Lines headed by an entry give the natural chain unless they say otherwise; changes in a name come on top.
UniProt Q9BQ95: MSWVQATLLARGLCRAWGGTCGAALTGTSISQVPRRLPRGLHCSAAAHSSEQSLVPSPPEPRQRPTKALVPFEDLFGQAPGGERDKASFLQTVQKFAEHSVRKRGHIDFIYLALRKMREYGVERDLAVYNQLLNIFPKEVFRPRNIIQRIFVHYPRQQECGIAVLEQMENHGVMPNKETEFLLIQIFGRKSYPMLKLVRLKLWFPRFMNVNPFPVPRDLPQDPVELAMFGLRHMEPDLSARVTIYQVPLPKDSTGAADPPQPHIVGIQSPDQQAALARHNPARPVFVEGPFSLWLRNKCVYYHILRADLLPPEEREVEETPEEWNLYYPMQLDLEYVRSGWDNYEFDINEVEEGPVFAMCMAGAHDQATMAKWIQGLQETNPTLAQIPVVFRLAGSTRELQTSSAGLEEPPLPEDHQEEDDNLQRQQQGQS
UniProt Q9BZE2: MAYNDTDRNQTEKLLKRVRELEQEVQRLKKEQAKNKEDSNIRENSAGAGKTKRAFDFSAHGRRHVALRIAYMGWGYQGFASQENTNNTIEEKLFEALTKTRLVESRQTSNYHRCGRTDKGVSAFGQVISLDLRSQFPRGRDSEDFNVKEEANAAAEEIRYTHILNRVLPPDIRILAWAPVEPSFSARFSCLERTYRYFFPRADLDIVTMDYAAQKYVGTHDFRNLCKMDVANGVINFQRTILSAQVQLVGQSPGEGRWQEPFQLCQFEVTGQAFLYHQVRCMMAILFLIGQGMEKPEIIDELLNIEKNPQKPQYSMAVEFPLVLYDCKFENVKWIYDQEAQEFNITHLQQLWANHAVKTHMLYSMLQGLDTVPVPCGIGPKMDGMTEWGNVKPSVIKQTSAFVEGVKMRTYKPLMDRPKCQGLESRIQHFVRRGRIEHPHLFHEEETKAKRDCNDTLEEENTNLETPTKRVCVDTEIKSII
UniProt Q9BYE7: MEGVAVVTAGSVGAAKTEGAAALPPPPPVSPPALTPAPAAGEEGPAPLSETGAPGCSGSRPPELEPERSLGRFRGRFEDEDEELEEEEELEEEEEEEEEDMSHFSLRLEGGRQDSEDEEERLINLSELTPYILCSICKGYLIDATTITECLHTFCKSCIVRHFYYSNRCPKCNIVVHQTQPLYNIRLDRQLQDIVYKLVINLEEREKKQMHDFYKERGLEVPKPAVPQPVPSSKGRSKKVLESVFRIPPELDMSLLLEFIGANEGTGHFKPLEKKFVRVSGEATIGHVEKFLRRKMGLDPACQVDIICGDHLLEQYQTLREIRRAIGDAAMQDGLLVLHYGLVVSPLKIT
UniProt Q9BTT4: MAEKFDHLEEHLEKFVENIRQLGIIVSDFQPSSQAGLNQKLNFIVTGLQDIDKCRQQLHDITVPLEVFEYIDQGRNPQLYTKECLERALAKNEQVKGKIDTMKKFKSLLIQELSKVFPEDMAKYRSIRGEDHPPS
UniProt Q9BTC0, whole entry: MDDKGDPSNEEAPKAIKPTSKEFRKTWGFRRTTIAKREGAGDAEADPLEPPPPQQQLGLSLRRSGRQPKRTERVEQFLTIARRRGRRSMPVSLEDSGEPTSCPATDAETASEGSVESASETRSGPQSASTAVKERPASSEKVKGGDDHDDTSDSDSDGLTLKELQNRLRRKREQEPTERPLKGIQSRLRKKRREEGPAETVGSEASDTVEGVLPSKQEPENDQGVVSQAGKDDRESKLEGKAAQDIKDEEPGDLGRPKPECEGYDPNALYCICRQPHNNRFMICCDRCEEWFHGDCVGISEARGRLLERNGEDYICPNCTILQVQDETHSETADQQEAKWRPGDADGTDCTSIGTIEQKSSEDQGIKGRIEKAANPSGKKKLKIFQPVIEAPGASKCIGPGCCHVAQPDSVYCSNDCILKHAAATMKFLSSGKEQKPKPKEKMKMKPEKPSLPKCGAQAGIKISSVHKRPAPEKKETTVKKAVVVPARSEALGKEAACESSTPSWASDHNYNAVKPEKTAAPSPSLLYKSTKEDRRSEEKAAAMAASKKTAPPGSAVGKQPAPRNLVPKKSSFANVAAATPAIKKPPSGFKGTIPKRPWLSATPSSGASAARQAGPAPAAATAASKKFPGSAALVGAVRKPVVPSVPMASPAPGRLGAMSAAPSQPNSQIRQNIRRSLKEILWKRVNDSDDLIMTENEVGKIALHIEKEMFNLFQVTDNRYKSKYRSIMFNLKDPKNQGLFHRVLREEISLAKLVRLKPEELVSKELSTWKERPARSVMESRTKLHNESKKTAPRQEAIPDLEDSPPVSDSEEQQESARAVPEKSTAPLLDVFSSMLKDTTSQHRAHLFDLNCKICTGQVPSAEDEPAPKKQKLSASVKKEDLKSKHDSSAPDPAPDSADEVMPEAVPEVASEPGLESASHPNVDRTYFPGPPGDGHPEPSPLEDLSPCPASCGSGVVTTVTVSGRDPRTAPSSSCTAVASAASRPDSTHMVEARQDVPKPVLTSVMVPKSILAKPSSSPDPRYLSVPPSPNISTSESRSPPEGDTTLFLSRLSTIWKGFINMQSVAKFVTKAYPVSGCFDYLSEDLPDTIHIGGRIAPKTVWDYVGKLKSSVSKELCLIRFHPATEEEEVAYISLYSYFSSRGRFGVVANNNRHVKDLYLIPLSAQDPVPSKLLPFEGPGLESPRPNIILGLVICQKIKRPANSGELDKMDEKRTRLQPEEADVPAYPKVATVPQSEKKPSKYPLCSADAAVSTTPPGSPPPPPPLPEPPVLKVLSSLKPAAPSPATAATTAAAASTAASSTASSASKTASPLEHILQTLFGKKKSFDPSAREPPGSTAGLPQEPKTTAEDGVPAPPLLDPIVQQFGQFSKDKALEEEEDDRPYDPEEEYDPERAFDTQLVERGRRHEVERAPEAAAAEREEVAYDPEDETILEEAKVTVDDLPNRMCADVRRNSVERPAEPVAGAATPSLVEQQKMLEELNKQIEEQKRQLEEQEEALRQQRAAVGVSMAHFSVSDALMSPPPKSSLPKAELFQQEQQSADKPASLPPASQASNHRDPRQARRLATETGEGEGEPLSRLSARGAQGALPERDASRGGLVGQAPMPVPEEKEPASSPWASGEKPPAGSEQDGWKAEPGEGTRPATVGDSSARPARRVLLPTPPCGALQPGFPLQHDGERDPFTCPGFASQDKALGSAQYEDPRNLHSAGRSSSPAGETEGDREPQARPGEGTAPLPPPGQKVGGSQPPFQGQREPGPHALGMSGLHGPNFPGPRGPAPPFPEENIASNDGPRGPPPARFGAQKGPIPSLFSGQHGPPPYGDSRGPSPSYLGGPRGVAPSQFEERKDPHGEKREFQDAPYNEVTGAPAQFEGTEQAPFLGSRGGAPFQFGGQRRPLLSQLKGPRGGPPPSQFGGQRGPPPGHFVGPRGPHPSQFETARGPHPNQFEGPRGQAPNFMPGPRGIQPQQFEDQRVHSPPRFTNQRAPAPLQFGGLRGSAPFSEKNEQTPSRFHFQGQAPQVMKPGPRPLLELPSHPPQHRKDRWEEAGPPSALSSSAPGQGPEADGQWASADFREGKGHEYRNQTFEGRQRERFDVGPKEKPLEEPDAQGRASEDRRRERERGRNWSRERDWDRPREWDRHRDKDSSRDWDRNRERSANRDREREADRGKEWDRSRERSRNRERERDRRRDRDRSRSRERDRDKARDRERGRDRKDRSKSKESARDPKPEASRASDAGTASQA
UniProt Q96RY7: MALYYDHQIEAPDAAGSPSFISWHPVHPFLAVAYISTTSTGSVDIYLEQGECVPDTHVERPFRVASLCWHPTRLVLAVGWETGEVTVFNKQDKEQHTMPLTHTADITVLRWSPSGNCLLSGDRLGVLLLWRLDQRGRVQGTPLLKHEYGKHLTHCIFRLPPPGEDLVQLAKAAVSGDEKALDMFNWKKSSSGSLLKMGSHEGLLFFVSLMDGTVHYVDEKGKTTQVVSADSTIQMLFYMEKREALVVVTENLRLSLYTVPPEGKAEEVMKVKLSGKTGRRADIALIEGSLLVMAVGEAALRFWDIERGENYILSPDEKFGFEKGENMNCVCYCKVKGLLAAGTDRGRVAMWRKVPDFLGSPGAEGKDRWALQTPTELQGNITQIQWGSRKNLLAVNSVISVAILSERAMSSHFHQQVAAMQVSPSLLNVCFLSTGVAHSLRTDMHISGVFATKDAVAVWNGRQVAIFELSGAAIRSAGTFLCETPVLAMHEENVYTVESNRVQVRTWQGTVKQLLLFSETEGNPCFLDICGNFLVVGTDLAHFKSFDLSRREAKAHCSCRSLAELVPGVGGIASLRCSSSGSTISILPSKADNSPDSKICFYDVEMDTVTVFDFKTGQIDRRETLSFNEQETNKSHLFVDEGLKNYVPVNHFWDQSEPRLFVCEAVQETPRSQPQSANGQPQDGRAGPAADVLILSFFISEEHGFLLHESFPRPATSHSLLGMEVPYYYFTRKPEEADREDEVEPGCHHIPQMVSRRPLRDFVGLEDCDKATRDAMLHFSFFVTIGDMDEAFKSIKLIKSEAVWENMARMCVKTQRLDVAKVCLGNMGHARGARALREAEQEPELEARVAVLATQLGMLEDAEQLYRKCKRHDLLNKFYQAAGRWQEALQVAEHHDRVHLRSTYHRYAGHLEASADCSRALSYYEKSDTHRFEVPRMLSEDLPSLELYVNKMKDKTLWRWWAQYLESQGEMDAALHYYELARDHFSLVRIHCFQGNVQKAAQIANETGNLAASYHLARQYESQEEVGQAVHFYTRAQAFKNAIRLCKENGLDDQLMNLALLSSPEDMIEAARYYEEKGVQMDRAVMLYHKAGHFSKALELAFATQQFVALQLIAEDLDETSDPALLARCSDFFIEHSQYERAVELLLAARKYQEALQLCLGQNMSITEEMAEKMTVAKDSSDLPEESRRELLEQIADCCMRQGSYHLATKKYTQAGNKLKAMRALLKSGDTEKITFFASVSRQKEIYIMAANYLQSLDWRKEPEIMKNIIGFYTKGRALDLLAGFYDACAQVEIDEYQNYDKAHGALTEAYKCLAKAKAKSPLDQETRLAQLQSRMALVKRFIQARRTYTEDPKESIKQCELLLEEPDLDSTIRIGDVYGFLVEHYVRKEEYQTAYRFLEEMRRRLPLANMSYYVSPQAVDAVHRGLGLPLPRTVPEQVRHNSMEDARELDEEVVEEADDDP
UniProt Q9BVA0, whole entry: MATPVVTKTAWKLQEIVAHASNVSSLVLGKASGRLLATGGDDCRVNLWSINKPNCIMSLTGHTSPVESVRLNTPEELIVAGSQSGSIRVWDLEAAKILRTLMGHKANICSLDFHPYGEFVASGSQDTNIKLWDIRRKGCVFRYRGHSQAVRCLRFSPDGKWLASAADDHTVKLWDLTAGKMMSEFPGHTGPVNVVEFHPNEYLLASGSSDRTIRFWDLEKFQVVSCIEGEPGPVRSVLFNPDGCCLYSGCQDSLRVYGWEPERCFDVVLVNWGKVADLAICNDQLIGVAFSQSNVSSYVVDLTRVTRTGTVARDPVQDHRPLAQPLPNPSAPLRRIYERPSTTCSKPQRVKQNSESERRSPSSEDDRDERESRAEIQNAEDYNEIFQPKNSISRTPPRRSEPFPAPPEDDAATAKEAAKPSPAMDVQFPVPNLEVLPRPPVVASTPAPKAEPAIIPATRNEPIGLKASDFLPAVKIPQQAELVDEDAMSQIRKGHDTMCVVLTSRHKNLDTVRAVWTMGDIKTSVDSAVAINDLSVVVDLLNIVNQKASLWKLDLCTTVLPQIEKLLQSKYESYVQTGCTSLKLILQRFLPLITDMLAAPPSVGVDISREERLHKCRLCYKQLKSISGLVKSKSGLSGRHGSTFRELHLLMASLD
UniProt Q9BT23: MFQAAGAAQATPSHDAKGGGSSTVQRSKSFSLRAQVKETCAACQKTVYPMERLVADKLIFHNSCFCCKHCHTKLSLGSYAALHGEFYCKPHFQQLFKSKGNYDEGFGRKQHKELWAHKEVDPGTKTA
UniProt Q96PZ0: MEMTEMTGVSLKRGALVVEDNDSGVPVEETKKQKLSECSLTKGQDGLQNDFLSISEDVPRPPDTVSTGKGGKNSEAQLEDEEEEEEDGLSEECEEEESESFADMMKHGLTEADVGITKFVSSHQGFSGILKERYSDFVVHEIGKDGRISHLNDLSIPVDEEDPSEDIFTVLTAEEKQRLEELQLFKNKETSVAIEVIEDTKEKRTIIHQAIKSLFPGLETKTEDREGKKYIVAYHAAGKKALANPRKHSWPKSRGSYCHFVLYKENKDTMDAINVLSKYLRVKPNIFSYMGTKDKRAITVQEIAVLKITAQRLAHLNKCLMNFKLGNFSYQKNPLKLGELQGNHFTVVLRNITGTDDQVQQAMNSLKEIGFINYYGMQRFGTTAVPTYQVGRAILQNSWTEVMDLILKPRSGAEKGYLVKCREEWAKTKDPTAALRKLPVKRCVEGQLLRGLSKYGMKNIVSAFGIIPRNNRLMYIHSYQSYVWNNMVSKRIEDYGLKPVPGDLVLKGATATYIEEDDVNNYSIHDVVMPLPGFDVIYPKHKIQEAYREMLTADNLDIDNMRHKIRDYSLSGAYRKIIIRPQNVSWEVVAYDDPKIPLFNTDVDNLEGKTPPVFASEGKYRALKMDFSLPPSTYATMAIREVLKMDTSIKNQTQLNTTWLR

Target	NP40-soluble protein abundance (concentration: 0.1mM)	NP40-soluble protein abundance (concentration: 0.5mM)	NP40-soluble protein abundance (concentration: 1mM)	NP40-soluble protein abundance (concentration: 2mM)	NP40-soluble protein abundance (concentration: 4mM)	NP40-soluble protein abundance (concentration: 6mM)	NP40-soluble protein abundance (concentration: 8mM)	NP40-soluble protein abundance (concentration: 10mM)
ECSIT (UniProt Q9BQ95)	1.05 ± 0.12	1.05 ± 0.094	1.01 ± 0.12	0.953 ± 0.058	1.09 ± 0.081	1.06 ± 0.047	1.03 ± 0.013	1.01 ± 0.048
UniProt Q96T21 and related entries	1.14 ± 0.15	1.08 ± 0.089	0.979 ± 0.034	1.14 ± 0.086	1.01 ± 0.089	1.02 ± 0.058	1.15 ± 0.14	1.11 ± 0.2
MRI1 (UniProt Q9BV20)	1.08 ± 0.096	1.07 ± 0.09	1.09 ± 0.14	1.02 ± 0.1	0.976 ± 0.12	1.06 ± 0.14	1.04 ± 0.12	1.01 ± 0.066
ADO (UniProt Q96SZ5)	0.981 ± 0.018	0.94 ± 0.016	0.961 ± 0.051	0.951 ± 0.043	0.926 ± 0.075	0.91 ± 0.055	0.932 ± 0.088	0.959 ± 0.013
PUS3 (UniProt Q9BZE2)	1.04 ± 0.054	1.03 ± 0.068	0.975 ± 0.1	0.947 ± 0.1	0.968 ± 0.048	0.912 ± 0.024	0.957 ± 0.095	0.881 ± 0.0091
UniProt Q9BSH4	0.988 ± 0.038	0.991 ± 0.047	0.915 ± 0.023	0.916 ± 0.0096	0.877 ± 0.021	0.881 ± 0.022	0.864 ± 0.031	0.843 ± 0.077
PCGF6 (UniProt Q9BYE7)	1.03 ± 0.11	1.12 ± 0.056	0.983 ± 0.073	0.959 ± 0.14	1.04 ± 0.038	1.069 ± 0.0046	1.01 ± 0.11	0.988 ± 0.026
MED10 (UniProt Q9BTT4)	1.01 ± 0.2	1.03 ± 0.098	0.973 ± 0.028	1.07 ± 0.11	0.95 ± 0.094	1.08 ± 0.05	0.968 ± 0.092	1.07 ± 0.038
TMED9 (UniProt Q9BVK6)	0.994 ± 0.02	1.027 ± 0.0033	0.946 ± 0.025	0.922 ± 0.029	0.919 ± 0.037	0.909 ± 0.017	0.915 ± 0.041	0.901 ± 0.051
UniProt Q9BVS4 and related entries	1.07 ± 0.084	1.21 ± 0.25	1.11 ± 0.18	1.13 ± 0.2	1.07 ± 0.18	1.11 ± 0.23	1.16 ± 0.27	1.19 ± 0.29
CORO1B (UniProt Q9BR76)	0.991 ± 0.032	1.06 ± 0.032	1.03 ± 0.036	1.05 ± 0.013	1.02 ± 0.069	1.08 ± 0.052	1.07 ± 0.024	1.05 ± 0.061
ZNF830 (UniProt Q96NB3)	0.965 ± 0.13	0.983 ± 0.065	1.19 ± 0.18	1.14 ± 0.14	1.12 ± 0.085	1.09 ± 0.1	1.1 ± 0.13	1.19 ± 0.16
POP1 (UniProt Q99575)	1.08 ± 0.033	1.09 ± 0.063	1.05 ± 0.044	1.1 ± 0.061	1.08 ± 0.1	1.13 ± 0.13	1.15 ± 0.087	1.12 ± 0.072
DIDO1 (UniProt Q9BTC0)	1.02 ± 0.055	1.07 ± 0.062	1.12 ± 0.077	1.13 ± 0.11	1.23 ± 0.12	1.23 ± 0.13	1.3 ± 0.22	1.28 ± 0.19
UniProt Q96KB5 and related entries	0.976 ± 0.015	0.9865 ± 0.0065	0.92 ± 0.028	0.898 ± 0.044	0.881 ± 0.039	0.903 ± 0.045	0.868 ± 0.058	0.874 ± 0.072
IFT140 (UniProt Q96RY7)	1.11 ± 0.22	1.17 ± 0.23	1.09 ± 0.14	1.15 ± 0.13	1.14 ± 0.09	1.11 ± 0.026	1.13 ± 0.065	1.14 ± 0.11
KATNB1 (UniProt Q9BVA0)	1.04 ± 0.024	1.05 ± 0.039	1.01 ± 0.039	0.987 ± 0.052	1.01 ± 0.043	0.971 ± 0.037	1.01 ± 0.048	0.966 ± 0.074
UniProt Q9BU02 and related entries	0.959 ± 0.03	0.953 ± 0.061	0.994 ± 0.054	1.02 ± 0.072	0.9806 ± 0.0068	1 ± 0.021	0.983 ± 0.1	0.98 ± 0.051
UniProt Q99523 and related entries	0.955 ± 0.012	0.926 ± 0.026	0.9811 ± 0.0087	0.967 ± 0.024	0.947 ± 0.066	0.973 ± 0.052	0.98 ± 0.043	1.02 ± 0.012
UniProt Q9BQC3 and related entries	1.07 ± 0.074	1.05 ± 0.054	0.974 ± 0.037	1.02 ± 0.078	1.08 ± 0.056	0.995 ± 0.079	1.03 ± 0.079	1.03 ± 0.12
THUMPD3 (UniProt Q9BV44)	1.01 ± 0.041	0.995 ± 0.016	0.963 ± 0.016	0.968 ± 0.05	0.955 ± 0.029	0.957 ± 0.067	0.959 ± 0.041	0.942 ± 0.07
TRMT61B (UniProt Q9BVS5)	1.13 ± 0.06	1.07 ± 0.096	1.04 ± 0.14	1.06 ± 0.057	1.09 ± 0.096	1.08 ± 0.087	1.03 ± 0.069	1.01 ± 0.025
UniProt Q96PM5 and related entries	1.1 ± 0.12	1.07 ± 0.13	1 ± 0.11	1.06 ± 0.16	0.994 ± 0.18	1.02 ± 0.14	1.02 ± 0.16	0.975 ± 0.11
UniProt Q99471 and related entries	0.952 ± 0.036	1 ± 0.064	0.933 ± 0.044	0.912 ± 0.034	0.802 ± 0.066	0.863 ± 0.094	0.837 ± 0.053	0.96 ± 0.01
GINS4 (UniProt Q9BRT9)	0.959 ± 0.017	0.926 ± 0.012	0.937 ± 0.02	0.93 ± 0.018	0.93 ± 0.02	0.891 ± 0.023	0.903 ± 0.061	0.874 ± 0.034
LIMD2 (UniProt Q9BT23)	0.881 ± 0.0095	0.895 ± 0.079	1.03 ± 0.047	1.01 ± 0.11	0.925 ± 0.099	1 ± 0.15	0.98 ± 0.097	1.03 ± 0.065
VPS35 (UniProt Q96QK1)	1.03 ± 0.082	1.04 ± 0.093	0.913 ± 0.048	0.958 ± 0.13	0.929 ± 0.11	0.912 ± 0.086	0.833 ± 0.048	0.868 ± 0.093
UniProt Q99426 and related entries	0.89 ± 0.061	0.918 ± 0.06	0.846 ± 0.062	0.851 ± 0.063	0.806 ± 0.067	0.822 ± 0.062	0.773 ± 0.078	0.824 ± 0.095
PUS7 (UniProt Q96PZ0)	0.992 ± 0.013	0.992 ± 0.016	0.944 ± 0.046	0.944 ± 0.029	0.907 ± 0.053	0.917 ± 0.022	0.889 ± 0.038	0.892 ± 0.059
UniProt Q9BTE3 and related entries	0.97 ± 0.039	1 ± 0.086	0.948 ± 0.019	0.952 ± 0.033	0.928 ± 0.025	0.923 ± 0.022	0.916 ± 0.034	0.909 ± 0.015

Just NP40-soluble protein abundance (concentration: 0.1mM) and NP40-soluble protein abundance (concentration: 2mM) (2 entries from above):
Target	NP40-soluble protein abundance (concentration: 0.1mM)	NP40-soluble protein abundance (concentration: 2mM)
MRI1 (UniProt Q9BV20)	1.08 ± 0.096	1.02 ± 0.1
PUS7 (UniProt Q96PZ0)	0.992 ± 0.013	0.944 ± 0.029

Source: the supplement of paper PMC6411743
